From PMC11047546
These are yes or no findings as the source states them, for the method shown. In cells and extracts the contact can be indirect. Some results given as binding are weak or reduced against the parent protein; the word gives no strength.

Sequences of proteins named here, by UniProt entry; tags and fusion partners are left off. A change or cut given only in a name is not applied to a line headed by its entry.
UniProt P57790: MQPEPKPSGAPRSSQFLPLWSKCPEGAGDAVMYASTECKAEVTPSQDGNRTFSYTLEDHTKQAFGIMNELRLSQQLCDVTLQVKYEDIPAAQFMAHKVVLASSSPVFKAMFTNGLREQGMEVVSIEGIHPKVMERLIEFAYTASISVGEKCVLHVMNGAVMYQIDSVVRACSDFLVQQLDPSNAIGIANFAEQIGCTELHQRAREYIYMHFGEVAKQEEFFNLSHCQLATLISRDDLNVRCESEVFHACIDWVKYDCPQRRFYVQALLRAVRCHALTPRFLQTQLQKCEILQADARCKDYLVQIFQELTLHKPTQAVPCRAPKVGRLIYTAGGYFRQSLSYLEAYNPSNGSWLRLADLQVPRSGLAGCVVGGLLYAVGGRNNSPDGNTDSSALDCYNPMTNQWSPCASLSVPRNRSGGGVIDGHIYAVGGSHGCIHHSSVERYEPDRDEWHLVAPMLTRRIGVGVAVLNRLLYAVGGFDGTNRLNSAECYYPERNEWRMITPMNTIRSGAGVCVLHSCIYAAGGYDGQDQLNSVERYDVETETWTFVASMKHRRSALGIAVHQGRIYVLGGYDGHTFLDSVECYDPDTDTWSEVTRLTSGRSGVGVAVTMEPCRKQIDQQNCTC

What was measured:
[1] = molecular target: full-length rat Keap1 C273A, 3×Flag-tagged (rat) (UniProt P57790); test: co-IP; RINm5F cells transfected with 3×Flag-Keap1 WT or cysteine mutants, OsG with or without GSH; NP40 lysis buffer; lysate incubated with anti-Flag antibody overnight at 4 °C, protein G magnetic beads; blot with anti-Nrf2
[2] = molecular target: full-length rat Keap1 C288A, 3×Flag-tagged (rat) (UniProt P57790); test: as above
[3] = molecular target: full-length rat Keap1, wild type, 3×Flag-tagged (Keap1-WT) (rat) (UniProt P57790); test: as above
[4] = molecular target: Kelch-like ECH-associated protein 1 (Keap1), endogenous in RINm5F cells (rat (endogenous in RIN-m5F)) (UniProt P57790); test: co-IP; RINm5F cells cultured in NG, OsG or OsG + GSH (13 mmol/L) for 6 days; NP40 lysis buffer; lysate incubated with anti-Keap1 antibody (or IgG, negative control) overnight at 4 °C, protein G magnetic beads; blot with anti-Nrf2 and anti-Keap1

Measured: binding

B1: nuclear factor erythroid 2-related factor 2 (Nrf2), endogenous in RINm5F cells (protein, UniProt O54968-1 1-604)
chain: MMDLELPPPGLQSQQDMDLIDILWRQDIDLGVSREVFDFSQRQKDYELEKQKKLEKERQEQLQKEQEKAFFAQLQLDEETGEFLPIQPAQHIQTDTSGSVSYSQVAHIPKQDALYFEDCMQLLAETFPFVDDHEVSSPTFQSLALDIPSHVESSVFTTPDQAQSLDSSLETAMTDLSSIQQDMEQVWQELFSIPELQCLNTENKQQAETTTVPSPEATLTEMDSNYHFYSSIPSLEKEVDSCSPHFLHGFEDSFSSILSTDDASQLNSLDSNPTLNTDFGDEFYSAFLAEPSGGGSMPSSAAISQSLSELLGGPIEGCDLSLCKAFNQKHTEGTVEFNDSDSGISLNTSPSRASPEHSVESSIYGDPPPGFSDSEMEELDSAPGSVKQNGPKAQPTHSSGDTVQPLSPAQGHSAAVHESQCENTTKKEVPVSPGHQKVPFTKDKHSSRLEAHLTRDELRAKALHIPFPVEKIINLPVDDFNEMMSKEQFNEAQLALIRDIRRRGKNKVAAQNCRKRKLENIVELEQDLGHLKDEREKLLREKGENDRNLHLLKRKLSTLYLEVFSMLRDEDGKPYSPSEYSLQQTRDGNVFLVPKSKKPDTKKN
binds: all assays above
